PubChem BioAssay AID1259281 – Sanger Institute – 2017
Shown is an unselected part of 794 reagents. Over the whole deposit, 22 (2.8%) got an active call. 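Calls rest on knock-down alone only; drug synergy scores play no part in them.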 Unmarked entries are inactive. The numbers tell different reagents against one gene apart. Viability is capped at 1. Reagent sequences are not shown. The record does not give: the amount of reagent, the time to read-out.

Aim: 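Screen kinases and frequently colorectal-mutated genes for lethal knock-downs and drug partners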 (primary screen)
Cells: human COLO678 colorectal cancer cell line
Reagents: siRNA pool against human genes
Treatment: anchor drugs at fixed doses: BYL719 1 µM, cetuximab 5 µg/ml or trametinib 10 nM; DMSO vehicle for the siRNA-alone arm
Measurement: 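Surviving cells scaled to non-targeting siRNA control as replicate means; robust z-score for knock-down alone; synergy scores weigh knock-down with drug against the predicted combined effect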
Reading the numbers: robust z-score, siRNA alone: higher = more viable cells; strongly negative means essential; viability, siRNA alone: higher = more surviving cells; synergy score with BYL719 and synergy score with trametinib and synergy score with cetuximab: higher = stronger synergistic killing with drug
Rule for the call: 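Called essential (knock-down alone) if knock-down by itself drops cell number to a robust z-score under -3; all others no change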
Meaning of the calls: active = essential (knock-down alone); inactive = no change

target	pool no.	robust z-score, siRNA alone	viability, siRNA alone (fraction of control)	synergy score with BYL719	synergy score with trametinib	synergy score with cetuximab
ACVR2B (activin A receptor type 2B)	1	0.365	0.997	0.0155	-0.0182	-0.0682
MED12 (mediator complex subunit 12)	1	0.473	1	0.174	0.0279	0.0189
CAMK1G (calcium/calmodulin dependent protein kinase IG)	1	0.473	1	-0.04	-0.0245	-0.0337
GUK1 (guanylate kinase 1)	1	-0.479	0.97	-0.0725	-0.00259	0.00846
PKIB (cAMP-dependent protein kinase inhibitor beta)	1	0.473	1	-0.0919	-0.00891	-0.0681
MAPK11 (mitogen-activated protein kinase 11)	1	0.473	1	0.126	0.0779	-0.0166
ACSL6 (acyl-CoA synthetase long chain family member 6)	1	-1.81	0.928	-0.158	-0.0978	-0.0822
COMMD3 (COMM domain containing 3)	1	0.473	1	-0.000451	0.0174	-0.0115
CAMK2N1 (calcium/calmodulin dependent protein kinase II inhibitor 1)	1	0.473	1	0.213	-0.0241	0.056
CDKN1A (cyclin dependent kinase inhibitor 1A)	1	0.473	1	-0.013	-0.0314	0.00456
FXN (frataxin)	1	0.473	1	0.00315	0.0381	-0.0655
ILK (integrin linked kinase)	1	0.473	1	0.0185	-0.04	-0.0242
ILK (integrin linked kinase)	2	-1.25	0.945	0.00479	0.115	-0.0675
AGK (acylglycerol kinase)	1	0.473	1	-0.0919	0.0336	-0.0108
CERT1 (ceramide transporter 1)	1	0.473	1	0.0461	0.0561	-0.0638
CDK2 (cyclin dependent kinase 2)	1	0.473	1	-0.0521	0.00416	-0.000989
PFKFB2 (6-phosphofructo-2-kinase/fructose-2,6-biphosphatase 2)	1	0.359	0.996	0.0978	0.0451	0.0273
CDK8 (cyclin dependent kinase 8)	1	-2.01	0.921	-0.164	-0.0331	-0.07
MAST3 (microtubule associated serine/threonine kinase 3)	1	-1.03	0.952	-0.0298	0.0708	0.0298
XYLB (xylulokinase)	1	0.473	1	0.0272	-0.00817	0.0523

Part of the list above, set out differently.
| target | pool no. | robust z-score, siRNA alone | viability, siRNA alone (fraction of control) | synergy score with BYL719 | synergy score with trametinib | synergy score with cetuximab |
| --- | --- | --- | --- | --- | --- | --- |
| PFKFB2 (6-phosphofructo-2-kinase/fructose-2,6-biphosphatase 2) | 1 | 0.359 | 0.996 | 0.0978 | 0.0451 | 0.0273 |
| CDK8 (cyclin dependent kinase 8) | 1 | -2.01 | 0.921 | -0.164 | -0.0331 | -0.07 |
